Earlier results on one compound are cited in US9694002B2, “Substituted benzamides and methods of use thereof” (GENENTECH, INC., priority 2013, dated 2017).

For the series the following is noted: lidocaine administered topically; Center for Drug Evaluation and Research NDA 20-612; cited from earlier work.

For the compound `CCN(CC)CC(=O)Nc1c(C)cccc1C` [lidocaine], the plasma concentrations result was “about 1 μM”.
